B1: actin-1E13-Antp-derived peptide (peptide)
chain: LPHAILRLDLAGRDLTDYLMKILTERQIKIWFQNRRMKWKK
B2: actin-1F6-Antp peptide (peptide)
chain: IGGSILASLSTFQQMWISKQEYDESRQIKIWFQNRRMKWKK

Sequences of proteins named here, by UniProt entry; tags and fusion partners are left off.
UniProt P21796, whole entry: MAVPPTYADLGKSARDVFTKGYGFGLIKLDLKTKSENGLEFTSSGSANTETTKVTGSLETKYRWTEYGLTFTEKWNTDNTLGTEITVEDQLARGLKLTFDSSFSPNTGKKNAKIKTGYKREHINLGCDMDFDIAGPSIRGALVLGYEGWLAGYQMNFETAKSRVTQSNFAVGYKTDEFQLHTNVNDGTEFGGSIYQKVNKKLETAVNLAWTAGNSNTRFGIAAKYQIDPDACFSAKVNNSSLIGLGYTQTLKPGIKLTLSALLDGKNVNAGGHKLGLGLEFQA

Target: purified VDAC1 (voltage-dependent anion channel-1) (UniProt P21796 1-283, fluorescently labeled with the NanoTemper Protein labeling kit BLUE (in the MST only))
Test: MST

Binder	Kd [µM]
B1	3
B2	7
